Results are given in words; binding and its absence hold for the method and conditions named. In cells and extracts the contact can be indirect. A result given as binding can be weak or reduced; the word gives no strength.

Protein sequences, listed by entry. Tags and fused reporters are not part of them. Lines headed by an entry give the natural chain unless they say otherwise; changes in a name come on top.
UniProt Q80WQ6: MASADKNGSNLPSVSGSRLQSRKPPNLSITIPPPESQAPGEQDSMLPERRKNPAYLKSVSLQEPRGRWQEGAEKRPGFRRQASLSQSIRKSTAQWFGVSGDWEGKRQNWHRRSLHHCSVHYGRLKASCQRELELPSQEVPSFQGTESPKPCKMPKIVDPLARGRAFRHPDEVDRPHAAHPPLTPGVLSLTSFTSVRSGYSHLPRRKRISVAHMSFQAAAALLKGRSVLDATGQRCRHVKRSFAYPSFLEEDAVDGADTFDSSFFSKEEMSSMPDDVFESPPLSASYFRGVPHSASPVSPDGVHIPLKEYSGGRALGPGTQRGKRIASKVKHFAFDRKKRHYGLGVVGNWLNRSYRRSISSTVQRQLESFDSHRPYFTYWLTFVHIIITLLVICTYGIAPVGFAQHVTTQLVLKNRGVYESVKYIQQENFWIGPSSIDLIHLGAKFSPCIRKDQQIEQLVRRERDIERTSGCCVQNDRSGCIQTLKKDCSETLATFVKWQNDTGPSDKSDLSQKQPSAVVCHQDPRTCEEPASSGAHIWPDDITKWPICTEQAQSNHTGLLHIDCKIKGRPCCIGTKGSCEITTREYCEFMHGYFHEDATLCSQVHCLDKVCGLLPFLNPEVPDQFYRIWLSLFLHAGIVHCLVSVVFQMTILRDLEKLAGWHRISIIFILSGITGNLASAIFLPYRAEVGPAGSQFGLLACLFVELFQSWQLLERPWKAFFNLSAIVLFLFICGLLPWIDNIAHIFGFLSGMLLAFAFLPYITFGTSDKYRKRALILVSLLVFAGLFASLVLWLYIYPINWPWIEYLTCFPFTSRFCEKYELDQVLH
UniProt P11881: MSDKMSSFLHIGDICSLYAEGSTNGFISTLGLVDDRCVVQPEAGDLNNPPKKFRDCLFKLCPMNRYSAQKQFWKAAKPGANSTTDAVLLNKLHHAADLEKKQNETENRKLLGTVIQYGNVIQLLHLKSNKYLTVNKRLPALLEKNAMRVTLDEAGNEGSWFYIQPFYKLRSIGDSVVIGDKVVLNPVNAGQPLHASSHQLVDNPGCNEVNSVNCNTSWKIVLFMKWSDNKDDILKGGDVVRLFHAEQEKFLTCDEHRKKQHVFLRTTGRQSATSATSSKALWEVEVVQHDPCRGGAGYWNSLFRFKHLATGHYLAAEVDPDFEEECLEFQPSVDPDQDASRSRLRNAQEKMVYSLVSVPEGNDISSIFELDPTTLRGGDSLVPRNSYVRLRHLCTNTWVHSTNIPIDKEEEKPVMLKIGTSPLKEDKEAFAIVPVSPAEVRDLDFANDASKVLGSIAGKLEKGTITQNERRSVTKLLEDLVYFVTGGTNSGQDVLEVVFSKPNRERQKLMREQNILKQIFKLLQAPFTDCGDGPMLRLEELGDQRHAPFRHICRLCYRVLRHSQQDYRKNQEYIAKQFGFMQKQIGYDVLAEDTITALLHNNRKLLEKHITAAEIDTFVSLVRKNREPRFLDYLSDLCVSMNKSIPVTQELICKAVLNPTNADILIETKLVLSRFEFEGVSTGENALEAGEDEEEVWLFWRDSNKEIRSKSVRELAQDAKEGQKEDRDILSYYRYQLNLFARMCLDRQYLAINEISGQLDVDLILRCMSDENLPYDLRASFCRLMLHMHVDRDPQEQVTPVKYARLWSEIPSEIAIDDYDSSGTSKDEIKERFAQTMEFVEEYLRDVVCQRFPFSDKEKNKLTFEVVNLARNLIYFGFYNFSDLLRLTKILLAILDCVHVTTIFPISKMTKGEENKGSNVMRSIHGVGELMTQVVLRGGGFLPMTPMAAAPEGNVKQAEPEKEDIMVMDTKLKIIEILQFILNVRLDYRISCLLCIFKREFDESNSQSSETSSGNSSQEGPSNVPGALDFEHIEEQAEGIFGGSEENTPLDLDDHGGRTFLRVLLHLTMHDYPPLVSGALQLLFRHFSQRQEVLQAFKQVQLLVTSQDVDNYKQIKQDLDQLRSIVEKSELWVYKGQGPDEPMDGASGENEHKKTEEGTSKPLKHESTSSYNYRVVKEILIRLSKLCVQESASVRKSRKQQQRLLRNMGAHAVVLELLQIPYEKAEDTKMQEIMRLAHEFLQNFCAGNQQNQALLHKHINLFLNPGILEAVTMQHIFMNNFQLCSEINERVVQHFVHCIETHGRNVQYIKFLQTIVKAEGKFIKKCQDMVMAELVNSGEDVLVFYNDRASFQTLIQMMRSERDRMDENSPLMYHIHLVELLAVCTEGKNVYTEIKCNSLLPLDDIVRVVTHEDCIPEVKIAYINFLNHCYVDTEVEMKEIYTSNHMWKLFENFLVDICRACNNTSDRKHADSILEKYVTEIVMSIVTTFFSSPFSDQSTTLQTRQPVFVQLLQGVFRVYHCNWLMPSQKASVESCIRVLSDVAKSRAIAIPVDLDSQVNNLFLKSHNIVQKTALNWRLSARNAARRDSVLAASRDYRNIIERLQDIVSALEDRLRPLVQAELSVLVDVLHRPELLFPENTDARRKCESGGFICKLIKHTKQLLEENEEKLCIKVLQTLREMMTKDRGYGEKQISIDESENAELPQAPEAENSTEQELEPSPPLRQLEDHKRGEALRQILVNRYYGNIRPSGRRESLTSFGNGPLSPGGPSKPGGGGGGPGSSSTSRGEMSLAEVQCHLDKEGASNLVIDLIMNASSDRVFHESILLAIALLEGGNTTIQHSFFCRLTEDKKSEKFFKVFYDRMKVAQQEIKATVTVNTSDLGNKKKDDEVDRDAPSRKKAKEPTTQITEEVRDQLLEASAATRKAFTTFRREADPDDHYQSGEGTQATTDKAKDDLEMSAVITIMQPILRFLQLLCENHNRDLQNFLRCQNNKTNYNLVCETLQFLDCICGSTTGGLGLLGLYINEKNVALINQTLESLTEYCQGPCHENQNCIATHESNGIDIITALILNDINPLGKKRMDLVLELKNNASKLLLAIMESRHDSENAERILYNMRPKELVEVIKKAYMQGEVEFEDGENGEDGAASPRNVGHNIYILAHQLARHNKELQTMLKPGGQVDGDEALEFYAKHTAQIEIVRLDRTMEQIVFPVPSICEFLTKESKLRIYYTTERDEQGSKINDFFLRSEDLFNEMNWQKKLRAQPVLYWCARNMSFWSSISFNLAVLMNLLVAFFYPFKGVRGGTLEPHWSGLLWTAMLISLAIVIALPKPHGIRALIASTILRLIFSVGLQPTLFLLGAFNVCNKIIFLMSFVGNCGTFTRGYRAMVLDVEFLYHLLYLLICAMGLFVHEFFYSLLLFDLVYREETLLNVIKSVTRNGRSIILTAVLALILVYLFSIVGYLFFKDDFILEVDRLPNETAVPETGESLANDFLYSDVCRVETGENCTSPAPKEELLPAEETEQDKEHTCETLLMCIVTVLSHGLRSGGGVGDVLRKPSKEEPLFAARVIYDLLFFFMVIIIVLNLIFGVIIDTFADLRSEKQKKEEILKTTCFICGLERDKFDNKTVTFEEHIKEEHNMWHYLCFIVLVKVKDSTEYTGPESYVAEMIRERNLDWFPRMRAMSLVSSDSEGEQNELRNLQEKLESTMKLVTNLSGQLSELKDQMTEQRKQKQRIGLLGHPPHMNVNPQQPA

For the experiment, the target named is iRhom2-ΔIRHD-HA (mouse (from the plasmid name pM6P.Blast-miR2)) (UniProt Q80WQ6). As to the kind of experiment: co-IP; iRhom1/2 DKO MEFs stably expressing HA-tagged iRhom2 forms; endogenous partners; lysis in 1% Triton X-100, 200 mM NaCl, 50 mM Tris-HCl pH 7.4; anti-HA magnetic beads, 4 °C overnight; washes with 500 mM NaCl; immunoblot; in Fig. 6b after 18 h with control or BIRD-2 peptides (10 or 20 µM). On the technique in general: Immunoblotting shows a protein as a band on a membrane.

In the case of “endogenous IP3R1 of MEFs (from UniProt P11881 1-2749) (receptor)”, the binding entry is reported as “binds”.

For the origin of these results see PMC8913617.
